Among the data in publication PMC3082517 (PLoS Biology, 2011) are binding values, retold here.

By UniProt entry, the sequences of proteins in these tests, tags left out. Where a name states a change or a piece, a line headed by the entry shows the natural chain unless it says otherwise. Residues count along the entry.
UniProt P07174, residues 30-425: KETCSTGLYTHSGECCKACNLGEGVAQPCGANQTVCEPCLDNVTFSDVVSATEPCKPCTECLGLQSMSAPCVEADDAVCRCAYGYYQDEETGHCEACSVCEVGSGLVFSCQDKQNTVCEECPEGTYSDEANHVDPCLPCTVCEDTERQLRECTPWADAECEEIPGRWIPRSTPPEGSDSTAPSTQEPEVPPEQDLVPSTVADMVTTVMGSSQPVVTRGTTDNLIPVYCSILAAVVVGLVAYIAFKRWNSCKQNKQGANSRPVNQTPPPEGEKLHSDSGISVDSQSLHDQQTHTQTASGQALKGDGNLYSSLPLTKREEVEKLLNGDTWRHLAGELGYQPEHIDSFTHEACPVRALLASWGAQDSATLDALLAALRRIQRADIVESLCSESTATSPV
UniProt Q9Z0W1, residues 32-254: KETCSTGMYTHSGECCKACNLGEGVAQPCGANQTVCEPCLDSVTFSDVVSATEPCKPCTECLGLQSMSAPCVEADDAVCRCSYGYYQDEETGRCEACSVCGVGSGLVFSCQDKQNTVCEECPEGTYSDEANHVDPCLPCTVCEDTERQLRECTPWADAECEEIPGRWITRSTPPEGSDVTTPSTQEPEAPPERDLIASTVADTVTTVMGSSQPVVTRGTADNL
UniProt P01139, residues 122-241: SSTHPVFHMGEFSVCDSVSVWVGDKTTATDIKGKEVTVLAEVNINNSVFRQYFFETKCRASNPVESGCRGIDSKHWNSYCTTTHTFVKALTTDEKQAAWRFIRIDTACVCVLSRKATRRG

Assay [1] has as its target rat p75^NTR receptor expressed in HEK293 cells (HEK293^p75NTR) (rat) (UniProt P07174). In words: radioligand binding; homologous [125I]-NGF displacement with unlabeled NGF on membranes isolated from HEK293^TrkA and HEK293^p75NTR transfectants; only the binder purified.
Assay [2] has as its target Recombinant Mouse NGF R/TNFRSF16/Fc Chimera (mouse) (UniProt Q9Z0W1). In words: pull-down; recombinant receptor/Fc chimeras pre-incubated with NGF in excess, then incubated overnight at 4°C with DHEA-7-CMO on NovaPEG amino resin; loss of the pull-down read by Western blot; both purified. On the technique in general: A western blot detects proteins with antibodies after separation by electrophoresis.

The target in assay [3] is T1, RhoGDP dissociation inhibitor (RhoGDI), myc-tagged (UniProt P52565).
T1 sequence: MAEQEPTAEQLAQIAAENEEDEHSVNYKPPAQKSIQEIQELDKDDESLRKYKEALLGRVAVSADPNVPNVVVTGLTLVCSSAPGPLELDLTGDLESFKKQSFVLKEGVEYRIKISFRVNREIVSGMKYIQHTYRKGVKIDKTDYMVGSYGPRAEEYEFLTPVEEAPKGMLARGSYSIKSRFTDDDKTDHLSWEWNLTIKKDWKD
In words: co-IP; HEK293 cells co-transfected with p75NTR and flag-TRAF6, myc-RIP2 or myc-RhoGDI, exposed for 30 min to 100 nM DHEA or 100 ng/ml NGF; lysates (50 mM Tris-HCl, 0.15 M NaCl, 1% Triton-X100, pH 7.4) immunoprecipitated with anti-flag or anti-myc, blotted for p75NTR.

Results are given in words; binding and its absence hold for the method and conditions named. For part of these data: Binding seen in cells or lysates may run through a third protein. Some entries that bind do so weakly or less than the wild type. For part of these data: Where a sequence is shown, tags or fusion partners need not be part of it.

For the substance “[125I]-NGF (from UniProt P01139 122-241) (ligand)”, the binding entry in assay [1] is on record as “binds”.

Take “nerve growth factor (NGF), unlabeled (from UniProt P01139 122-241) (ligand)”: the binding entry in assay [2] is “binds”.

Take “rat p75^NTR receptor expressed in HEK293 cells (HEK293^p75NTR) (from UniProt P07174 30-425)”: the binding entry in assay [3] was “binds”.
